No constants are given. Whether binding was seen depends on the method and setting. Binding seen in cells or lysates may run through a third protein. Some entries that bind do so weakly or less than the wild type.
Legend:
Test in all cases: co-IP
[1] = biological target: T1, Lamin C (Drosophila (endogenous in Kc167 cells)) (UniProt Q03427)
T1 sequence: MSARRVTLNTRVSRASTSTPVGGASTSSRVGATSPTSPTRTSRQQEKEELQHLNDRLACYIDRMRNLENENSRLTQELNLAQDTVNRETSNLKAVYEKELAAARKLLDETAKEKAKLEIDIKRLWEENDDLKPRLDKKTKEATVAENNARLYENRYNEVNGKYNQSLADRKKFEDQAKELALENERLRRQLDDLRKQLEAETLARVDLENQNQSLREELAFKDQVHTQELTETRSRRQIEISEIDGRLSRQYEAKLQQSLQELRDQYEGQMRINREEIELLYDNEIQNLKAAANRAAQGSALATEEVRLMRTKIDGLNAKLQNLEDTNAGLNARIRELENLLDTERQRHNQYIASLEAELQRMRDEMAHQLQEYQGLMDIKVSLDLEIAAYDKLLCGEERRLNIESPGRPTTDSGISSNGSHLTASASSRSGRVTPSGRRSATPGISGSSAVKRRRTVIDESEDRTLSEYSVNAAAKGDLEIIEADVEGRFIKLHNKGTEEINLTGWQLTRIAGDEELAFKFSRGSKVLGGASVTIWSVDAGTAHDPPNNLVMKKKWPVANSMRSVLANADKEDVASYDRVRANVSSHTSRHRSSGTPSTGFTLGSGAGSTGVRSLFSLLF

Chains of the proteins cited; added tags and fusions are not shown.
UniProt Q7JW27: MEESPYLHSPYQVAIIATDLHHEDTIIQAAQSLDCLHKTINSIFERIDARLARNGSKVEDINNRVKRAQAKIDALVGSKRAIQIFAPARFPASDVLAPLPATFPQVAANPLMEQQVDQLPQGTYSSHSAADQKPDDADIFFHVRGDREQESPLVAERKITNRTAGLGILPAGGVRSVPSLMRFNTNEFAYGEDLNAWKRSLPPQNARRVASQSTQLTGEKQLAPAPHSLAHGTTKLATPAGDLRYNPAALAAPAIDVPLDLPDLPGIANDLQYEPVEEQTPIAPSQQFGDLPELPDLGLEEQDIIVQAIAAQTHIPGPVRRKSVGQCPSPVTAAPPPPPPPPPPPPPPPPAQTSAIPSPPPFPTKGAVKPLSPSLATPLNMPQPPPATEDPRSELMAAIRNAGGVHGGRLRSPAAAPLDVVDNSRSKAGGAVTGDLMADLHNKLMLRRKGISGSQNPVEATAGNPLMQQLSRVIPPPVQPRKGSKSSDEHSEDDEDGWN

[2] = biological target: T2, Lamin B (Drosophila (endogenous in Kc167 cells)) (UniProt P08928)
T2 sequence: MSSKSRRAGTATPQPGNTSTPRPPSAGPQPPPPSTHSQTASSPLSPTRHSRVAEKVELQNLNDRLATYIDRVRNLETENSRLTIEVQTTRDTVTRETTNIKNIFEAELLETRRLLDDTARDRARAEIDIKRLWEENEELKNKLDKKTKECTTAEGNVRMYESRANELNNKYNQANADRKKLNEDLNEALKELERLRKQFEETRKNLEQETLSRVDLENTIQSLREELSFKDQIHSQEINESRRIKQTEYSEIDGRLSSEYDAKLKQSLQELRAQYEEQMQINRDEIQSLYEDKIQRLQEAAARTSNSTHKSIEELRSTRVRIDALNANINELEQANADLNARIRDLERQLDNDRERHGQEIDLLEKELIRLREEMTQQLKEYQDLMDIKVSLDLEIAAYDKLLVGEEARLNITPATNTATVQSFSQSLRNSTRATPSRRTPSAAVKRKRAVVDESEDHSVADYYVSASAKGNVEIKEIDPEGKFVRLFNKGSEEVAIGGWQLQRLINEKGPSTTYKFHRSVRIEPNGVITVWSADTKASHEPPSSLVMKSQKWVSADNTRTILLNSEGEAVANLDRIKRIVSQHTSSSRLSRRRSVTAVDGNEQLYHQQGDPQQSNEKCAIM

[3] = biological target: T3, Strumpellin (Drosophila (endogenous in Kc167 cells)) (UniProt Q9VUY8)
T3 sequence: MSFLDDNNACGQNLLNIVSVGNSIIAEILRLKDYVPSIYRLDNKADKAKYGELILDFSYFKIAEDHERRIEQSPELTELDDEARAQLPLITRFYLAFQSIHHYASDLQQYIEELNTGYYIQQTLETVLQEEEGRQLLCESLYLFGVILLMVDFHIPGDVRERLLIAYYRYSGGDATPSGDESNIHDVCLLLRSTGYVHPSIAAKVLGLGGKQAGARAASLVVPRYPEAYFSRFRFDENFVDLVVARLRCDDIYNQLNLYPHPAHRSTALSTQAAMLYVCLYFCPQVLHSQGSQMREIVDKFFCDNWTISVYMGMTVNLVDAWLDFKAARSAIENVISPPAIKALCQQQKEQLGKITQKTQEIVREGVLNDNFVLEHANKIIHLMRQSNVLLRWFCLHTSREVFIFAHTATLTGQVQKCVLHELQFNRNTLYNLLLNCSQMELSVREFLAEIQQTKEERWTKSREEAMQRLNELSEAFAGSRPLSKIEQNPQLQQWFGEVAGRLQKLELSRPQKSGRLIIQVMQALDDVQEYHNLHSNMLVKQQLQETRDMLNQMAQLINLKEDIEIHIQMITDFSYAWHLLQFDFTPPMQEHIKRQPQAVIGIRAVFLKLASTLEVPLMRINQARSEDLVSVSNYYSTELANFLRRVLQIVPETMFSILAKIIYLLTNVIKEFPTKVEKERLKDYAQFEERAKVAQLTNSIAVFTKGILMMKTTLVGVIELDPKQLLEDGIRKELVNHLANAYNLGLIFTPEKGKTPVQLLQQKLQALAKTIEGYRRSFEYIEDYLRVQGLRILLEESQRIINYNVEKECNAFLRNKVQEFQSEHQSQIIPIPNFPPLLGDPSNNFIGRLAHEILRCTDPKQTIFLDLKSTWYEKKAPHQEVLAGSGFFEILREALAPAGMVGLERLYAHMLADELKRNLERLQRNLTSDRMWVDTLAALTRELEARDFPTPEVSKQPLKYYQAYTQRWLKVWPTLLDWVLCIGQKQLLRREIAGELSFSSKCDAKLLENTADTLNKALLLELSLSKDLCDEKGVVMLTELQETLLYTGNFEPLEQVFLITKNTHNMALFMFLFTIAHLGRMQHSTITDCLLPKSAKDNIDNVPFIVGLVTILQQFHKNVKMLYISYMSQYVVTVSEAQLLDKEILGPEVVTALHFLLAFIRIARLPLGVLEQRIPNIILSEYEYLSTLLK

[4] = biological target: T4, CCDC53 (Drosophila (endogenous in Kc167 cells)) (UniProt Q9VLT8)
T4 sequence: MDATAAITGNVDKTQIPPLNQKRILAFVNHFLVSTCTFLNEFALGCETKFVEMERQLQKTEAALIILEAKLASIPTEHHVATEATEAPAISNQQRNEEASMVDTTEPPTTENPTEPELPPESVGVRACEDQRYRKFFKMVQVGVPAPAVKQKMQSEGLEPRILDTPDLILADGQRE

[5] = biological target: Wash (Drosophila (endogenous in Kc167 cells)) (UniProt Q7JW27)

binding [1]: no binding
binding [2]: no binding
binding [3]: binds
binding [4]: binds
binding [5]: binds
B1: FAM21 (protein, UniProt A1ZBW7 1-1469)
chain: MDISADVDQIIAQAPDWTFAGDCALLALMKRISQNLEERGERTSRNLRDFETSVKQVDIALNNATTSLRSLQFGNQFVEYRVEEVDDADLAMPEEKKKKPELPLKSSEELAKEFLENNLRMFRKNYEPVTIEVPDSDDEDGPVHSTTVFRAKNPYDAIPLPYIIGTKEWQEHKYAGLYDSKENSEDDRSEEFSSSSSDEKEPETKKIATPANKLEEQHLSDSSSLASFAREPAIVSPVINPAVQVAEPVIRTQPRPIINSQRNPHERDMFAALRQSPPSDDPPSTSSSPTSSPAFRNPSSRLPIVSTASLSSSSSSPAQQPPRLFDEAVSTQTPKEAEIKPSQTKRMPVNLFNEDEFKSFMSEIVDKVQSKTPSSSVSPATTISTKEPPKTKKPVEEYPKPGPPKQIVEQTVPKRVNLFDDSPPLSPTPRSEPVFNNTKATGAIPKRSPVVVANNDEDNSLFGSSPAMPKENPSKKPPKPVTKSLFDDDLEDDDFLSSFTPKAKPPEQKLLSKPKPSLFDDDDLDIDDIFTKPSAQPKKLSERVAGKTSLFEDDDQDDVTDLFGSKKAKVIPKETSSGVSPNKNVETPVASKKSLFDDIEDEDLFGTPKAKNLIRSEPDNDPEAVGEDKKQSEIAEQKSKNIETGEKQHQVIAENASVPILRDSPPPMEVTEQKSDDKEWEAVKDDTSAANITKSKDLFSEDLTDDELFSSTSNNMAEPKSANETNEFNKPIEKYTSQTEENVSPVNPPTKLSIKPTDLFNEDFSDDDTFLSASMSKNEPLVGTENEDIKKPSEVQLVKEIKAEELPQQLPENKIYEITAVVEKDELVPEMLSKPQIDEPVSETPPPDDYQSNVDPIISMVADVTNKTSVDTLTPRKPADLAAAQQIMQNYSNLFSDEPPDDSEFFQTLGSSGLSSLSASKIFDNEHDFFEPALPNIPSATKPSPVTPGDQPSVSSDYGAMCLFSDVPPEDNDHAGEEVQKEAEPQKDELASTTRIHTIFYDDFSETARAGAVQPAPKRFPFDDEPPPADETDRSEVKETPELQKPTSPVKKLKMPNININVHALLPGSGSVPKLIRKQESSSSERDEPQATVQTEAEAPSSGQNTVSSADGVLQHVNKSRARGPAKRRPSTRRGRKENYAKSLLDAGQNEGPTASTRDSPEVEHSERSSIKAPSPQYVKPEKLFSTPAQQIQPQLQRPPPSNTGGSFLDSPDEDDSFFNSVPTKTVEGKQGTDPPKSYRSFLDSPDADDKLFSDLENNKAGINVVPVEKKPPKMANSFLASPDEDDFLFDSVKTNATTTAQKAFAAEIMNAFQKVTTAPPKPSNAKEAAKPKSQAAPKLFDDSDDDDDDLFARAPSIQTASKPVQAKQPPKPAATSLFSSDDEEAEVPVKSAPAKKLPVKPSKSLFSDDDDDDDLFGGSSTSKAAAAKKTKPAARTASKPPASKTTTPTATIPSNSGDNPLADLLDFK
